At least one compound was matched to its structure with a doubt left.
The compounds below were run against T1, vesamicol receptor (Tetronarce californica, UniProt P81721) (assay: Inhibition of [^3 H]vesamicol binding to highly purified synaptic vesicles (electric organ of Torpedo Californica)). Details: relative to comparator compounds.
T1 sequence (P81721 1-515): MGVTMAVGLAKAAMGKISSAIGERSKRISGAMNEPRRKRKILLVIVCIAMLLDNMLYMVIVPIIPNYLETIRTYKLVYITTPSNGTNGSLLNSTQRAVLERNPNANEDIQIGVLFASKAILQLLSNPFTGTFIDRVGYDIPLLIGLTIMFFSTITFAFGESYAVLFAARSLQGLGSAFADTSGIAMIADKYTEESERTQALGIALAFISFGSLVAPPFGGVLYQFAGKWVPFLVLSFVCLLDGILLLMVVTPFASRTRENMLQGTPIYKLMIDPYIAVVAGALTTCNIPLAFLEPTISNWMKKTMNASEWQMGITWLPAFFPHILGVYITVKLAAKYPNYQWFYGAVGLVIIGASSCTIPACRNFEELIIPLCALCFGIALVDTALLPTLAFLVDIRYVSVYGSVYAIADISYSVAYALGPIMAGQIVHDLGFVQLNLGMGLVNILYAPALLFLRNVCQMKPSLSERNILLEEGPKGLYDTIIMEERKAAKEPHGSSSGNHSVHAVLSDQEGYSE
Excerpt: vesicles harvested from the electric organ of Torpedo Californica.
^b Data obtained from Bahr and Parsons (1986).
IC50 values are quoted ±1 standard deviation.
^d Obtained from Efange et al. (1991).

Question: O=C(c1ccccc1)N1CC[C@H](N2CCC(c3ccccc3)CC2)[C@@H](O)C1 (relative stereo) [Compound 9a, 1-Benzoyl-3-hydroxy-4-(4-phenylpiperidinyl)piperidine] was tested. Which “in vitro potency (in words)” value did it give?
Answer: essentially in inactive

Question: Which “in vitro potency (in words)” value does the source give for O=C(c1ccccc1)N1CC[C@H](O)[C@@H](N2CCC(c3ccccc3)CC2)C1 (relative stereo) [Compound 10a, 1-Benzoyl-4-hydroxy-3-(4-phenylpiperidinyl)piperidine] here?
Answer: almost as potent as vesamicol

Question: O[C@H]1CCN(Cc2ccc(Br)cc2)C[C@@H]1N1CCC(c2ccccc2)CC1 (relative stereo) [Compound 12g, 1-(4-Bromobenzyl)-4-hydroxy-3-(4-phenylpiperidinyl)piperidine] was tested. Which “in vitro potency (in words)” value did it give?
Answer: did not significantly alter the potency
